# Results: the supplement of paper PMC8728848
# The other results are listed elsewhere or left out.
# B1: PX9916F-bfa-443-24-443 (Bacteroides fragilis) (protein)
# chain: DIRPVGSVIPQTAEEYRALLARAYLNVPNDRGLACLRSDEMLVNDNEYDRNSYGDIERWNDVSPFPGTSQFTWSNFYNVLFIANQVIESQKEITEGTPEVVNQLVGEAHLLRAYLHFVLVNLHGQPYTKSGALNSKSIPLKLDTDLEKTLGRNTVEEVYTSILSDIEHARELINKEKWETVFSYRFNVLSVDALQSRVSLYMGAWPKCLESAEAVLAKKSVLVDMNETPLALPNHFESVESITALEQVMGSSVNNAVWVPATFLALYQEGDKRLAAYFAAPDENGNRKSSKGGKREFSCTFRVGELYLNAAEAAANMDKLPHARMRLLELMRKRYTPEAYDKKENAVNVMDKNALISEILNERARELAFEGHRWFDLRRTTRPRMVKVLQGKTYILEQDDPRYTIPIPRDAIAANPGLAN
# Key:
# Assay in all cases: glycan array binding signal (z-score within array); higher = stronger binding
# Settings in all cases: glycan notation: IUPAC condensed, linker removed
# [1] = biological target: Neu5Ac(a2-6)Gal(b1-3)GlcNAc(b1-3)[Gal(b1-4)GlcNAc(b1-6)]Gal(b1-4)Glc
# In short: (§1)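 The Consortium for Functional Glycomics database supplied 3228 glycan arrays, of which those lacking an available protein sequence were dropped. The binding signal, a within-array Z-score, was averaged across arrays of the same protein sequence and across linkers. Negative scores can be read as non-binding.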
# Neu5Ac(a2-6)Gal(b1-4)Glc = biological target: Neu5Ac(a2-6)Gal(b1-4)Glc
# In short: as §1
# [2] = biological target: Neu5Ac(a2-6)Gal(b1-4)GlcNAc
# In short: as §1
# [3] = biological target: Neu5Ac(a2-6)Gal(b1-4)GlcNAc(b1-2)Man
# In short: as §1
# [4] = biological target: Neu5Ac(a2-6)Gal(b1-4)GlcNAc(b1-2)Man(a1-3)Man(b1-4)GlcNAc(b1-4)GlcNAc
# In short: as §1
# [5] = biological target: Neu5Ac(a2-6)Gal(b1-4)GlcNAc(b1-2)Man(a1-3)[Gal(b1-4)GlcNAc(b1-2)Man(a1-6)]Man(b1-4)GlcNAc(b1-4)GlcNAc
# In short: as §1
# [6] = biological target: Neu5Ac(a2-6)Gal(b1-4)GlcNAc(b1-2)Man(a1-3)[GlcNAc(b1-2)Man(a1-6)]Man(b1-4)GlcNAc(b1-4)GlcNAc
# In short: as §1
# [7] = biological target: Neu5Ac(a2-6)Gal(b1-4)GlcNAc(b1-2)Man(a1-3)[GlcNAc(b1-4)][Neu5Ac(a2-6)Gal(b1-4)GlcNAc(b1-2)Man(a1-6)]Man(b1-4)GlcNAc(b1-4)GlcNAc
# In short: as §1
# [8] = biological target: Neu5Ac(a2-6)Gal(b1-4)GlcNAc(b1-2)Man(a1-3)[Man(a1-6)]Man(b1-4)GlcNAc(b1-4)GlcNAc
# In short: as §1
# [9] = biological target: Neu5Ac(a2-6)Gal(b1-4)GlcNAc(b1-2)Man(a1-3)[Neu5Ac(a2-3)Gal(b1-4)GlcNAc(b1-2)Man(a1-6)]Man(b1-4)GlcNAc(b1-4)GlcNAc
# In short: as §1
# [10] = biological target: Neu5Ac(a2-6)Gal(b1-4)GlcNAc(b1-2)Man(a1-3)[Neu5Ac(a2-6)Gal(b1-4)GlcNAc(b1-2)Man(a1-6)]Man(b1-4)GlcNAc(b1-4)GlcNAc
# In short: as §1
# [11] = biological target: Neu5Ac(a2-6)Gal(b1-4)GlcNAc(b1-2)Man(a1-3)[Neu5Ac(a2-6)Gal(b1-4)GlcNAc(b1-2)Man(a1-6)]Man(b1-4)GlcNAc(b1-4)[Fuc(a1-6)]GlcNAc
# In short: as §1
# [12] = biological target: Neu5Ac(a2-6)Gal(b1-4)GlcNAc(b1-2)Man(a1-6)Man(b1-4)GlcNAc(b1-4)GlcNAc
# In short: as §1
# [13] = biological target: Neu5Ac(a2-6)Gal(b1-4)GlcNAc(b1-2)Man(a1-6)[Gal(b1-4)GlcNAc(b1-2)Man(a1-3)]Man(b1-4)GlcNAc(b1-4)GlcNAc
# In short: as §1
# [14] = biological target: Neu5Ac(a2-6)Gal(b1-4)GlcNAc(b1-2)Man(a1-6)[GlcNAc(b1-2)Man(a1-3)]Man(b1-4)GlcNAc(b1-4)GlcNAc
# In short: as §1
# [15] = biological target: Neu5Ac(a2-6)Gal(b1-4)GlcNAc(b1-2)Man(a1-6)[Man(a1-3)]Man(b1-4)GlcNAc(b1-4)GlcNAc
# In short: as §1
# [16] = biological target: Neu5Ac(a2-6)Gal(b1-4)GlcNAc(b1-2)[Neu5Ac(a2-6)Gal(b1-4)GlcNAc(b1-4)]Man(a1-3)[GlcNAc(b1-4)][Neu5Ac(a2-6)Gal(b1-4)GlcNAc(b1-2)[Neu5Ac(a2-6)Gal(b1-4)GlcNAc(b1-6)]Man(a1-6)]Man(b1-4)GlcNAc(b1-4)GlcNAc
# In short: as §1
# [17] = biological target: Neu5Ac(a2-6)Gal(b1-4)GlcNAc(b1-2)[Neu5Ac(a2-6)Gal(b1-4)GlcNAc(b1-4)]Man(a1-3)[GlcNAc(b1-4)][Neu5Ac(a2-6)Gal(b1-4)GlcNAc(b1-4)Man(a1-6)]Man(b1-4)GlcNAc(b1-4)GlcNAc
# In short: as §1
# [18] = biological target: Neu5Ac(a2-6)Gal(b1-4)GlcNAc(b1-2)[Neu5Ac(a2-6)Gal(b1-4)GlcNAc(b1-6)]Man(a1-6)[Neu5Ac(a2-6)Gal(b1-4)GlcNAc(b1-2)Man(a1-3)][GlcNAc(b1-4)]Man(b1-4)GlcNAc(b1-4)GlcNAc
# In short: as §1
# [19] = biological target: Neu5Ac(a2-6)Gal(b1-4)GlcNAc(b1-3)Gal(b1-3)GlcNAc
# In short: as §1
# [20] = biological target: Neu5Ac(a2-6)Gal(b1-4)GlcNAc(b1-3)Gal(b1-4)GlcNAc
# In short: as §1
# [21] = biological target: Neu5Ac(a2-6)Gal(b1-4)GlcNAc(b1-3)Gal(b1-4)GlcNAc(b1-2)Man(a1-3)[Neu5Ac(a2-6)Gal(b1-4)GlcNAc(b1-3)Gal(b1-4)GlcNAc(b1-2)Man(a1-6)]GalNAc
# In short: as §1
# [22] = biological target: Neu5Ac(a2-6)Gal(b1-4)GlcNAc(b1-3)Gal(b1-4)GlcNAc(b1-3)Gal(b1-4)GlcNAc
# In short: as §1
# [23] = biological target: Neu5Ac(a2-6)Gal(b1-4)GlcNAc(b1-3)Gal(b1-4)GlcNAc(b1-3)Gal(b1-4)GlcNAc(b1-2)Man(a1-3)[Neu5Ac(a2-6)Gal(b1-4)GlcNAc(b1-3)Gal(b1-4)GlcNAc(b1-3)Gal(b1-4)GlcNAc(b1-2)Man(a1-6)]GalNAc
# In short: as §1
# [24] = biological target: Neu5Ac(a2-6)Gal(b1-4)GlcNAc(b1-3)Gal(b1-4)GlcNAc(b1-3)GalNAc
# In short: as §1
# [25] = biological target: Neu5Ac(a2-6)Gal(b1-4)GlcNAc(b1-3)Gal(b1-4)GlcNAc(b1-3)[Neu5Ac(a2-6)Gal(b1-4)GlcNAc(b1-3)Gal(b1-4)GlcNAc(b1-6)]GalNAc
# In short: as §1
# [26] = biological target: Neu5Ac(a2-6)Gal(b1-4)GlcNAc(b1-3)Gal(b1-4)GlcNAc(b1-6)[Gal(b1-3)]GalNAc
# In short: as §1
# [27] = biological target: Neu5Ac(a2-6)Gal(b1-4)GlcNAc(b1-3)Gal(b1-4)[Fuc(a1-3)]GlcNAc(b1-3)Gal(b1-4)[Fuc(a1-3)]GlcNAc
# In short: as §1
# [28] = biological target: Neu5Ac(a2-6)Gal(b1-4)GlcNAc(b1-3)GalNAc
# In short: as §1
# [29] = biological target: Neu5Ac(a2-6)Gal(b1-4)GlcNAc(b1-3)[Neu5Ac(a2-6)Gal(b1-4)GlcNAc(b1-6)]GalNAc
# In short: as §1
# [30] = biological target: Neu5Ac(a2-6)Gal(b1-4)GlcNAc(b1-6)GalNAc
# In short: as §1
# [31] = biological target: Neu5Ac(a2-6)Gal(b1-4)GlcNAc(b1-6)[Gal(b1-3)GlcNAc(b1-3)]Gal(b1-4)Glc
# In short: as §1
# [32] = biological target: Neu5Ac(a2-6)Gal(b1-4)GlcNAc(b1-6)[Gal(b1-3)]GalNAc
# In short: as §1
# [33] = biological target: Neu5Ac(a2-6)Gal(b1-4)GlcNAc6S
# In short: as §1
# Neu5Ac(a2-6)GalNAc = biological target: Neu5Ac(a2-6)GalNAc
# In short: as §1
# [34] = biological target: Neu5Ac(a2-6)GalNAc(b1-4)GlcNAc
# In short: as §1
# [35] = biological target: Neu5Ac(a2-6)GalNAc(b1-4)GlcNAc6S
# In short: as §1
# [36] = biological target: Neu5Ac(a2-6)GlcNAc(b1-4)GlcNAc
# In short: as §1
binder,measurement,setting,value
B1,glycan array binding signal (z-score),[1],0.052
same,glycan array binding signal (z-score),Neu5Ac(a2-6)Gal(b1-4)Glc,-0.418
same,glycan array binding signal (z-score),[2],-0.543
same,glycan array binding signal (z-score),[3],0.218
same,glycan array binding signal (z-score),[4],-0.432
same,glycan array binding signal (z-score),[5],0.156
same,glycan array binding signal (z-score),[6],-0.739
same,glycan array binding signal (z-score),[7],-1.44
same,glycan array binding signal (z-score),[8],0.549
same,glycan array binding signal (z-score),[9],0.925
same,glycan array binding signal (z-score),[10],-0.058
same,glycan array binding signal (z-score),[11],-0.455
same,glycan array binding signal (z-score),[12],0.038
same,glycan array binding signal (z-score),[13],0.4
same,glycan array binding signal (z-score),[14],0.435
same,glycan array binding signal (z-score),[15],-0.804
same,glycan array binding signal (z-score),[16],-0.139
same,glycan array binding signal (z-score),[17],0.41
same,glycan array binding signal (z-score),[18],-0.631
same,glycan array binding signal (z-score),[19],-0.915
same,glycan array binding signal (z-score),[20],-0.736
same,glycan array binding signal (z-score),[21],-0.427
same,glycan array binding signal (z-score),[22],-0.806
same,glycan array binding signal (z-score),[23],1.35
same,glycan array binding signal (z-score),[24],1.49
same,glycan array binding signal (z-score),[25],-0.63
same,glycan array binding signal (z-score),[26],-0.155
same,glycan array binding signal (z-score),[27],0.558
same,glycan array binding signal (z-score),[28],-0.607
same,glycan array binding signal (z-score),[29],-0.857
same,glycan array binding signal (z-score),[30],0.34
same,glycan array binding signal (z-score),[31],0.117
same,glycan array binding signal (z-score),[32],-0.419
same,glycan array binding signal (z-score),[33],-0.518
same,glycan array binding signal (z-score),Neu5Ac(a2-6)GalNAc,-1.11
same,glycan array binding signal (z-score),[34],0.071
same,glycan array binding signal (z-score),[35],0.29
same,glycan array binding signal (z-score),[36],-0.997

# Shown as tab-separated lines: part of the list above.
binder	measurement	setting	value
B1	glycan array binding signal (z-score)	[30]	0.34
same	glycan array binding signal (z-score)	[31]	0.117
